Data published in PubChem BioAssay AID504327 (National Center for Advancing Translational Sciences (NCATS), 2011).
Among all 390,000 compounds or so, about 820 (0.21%) were called active. Inconclusive means that the source gave no clear call. Such entries were picked first, then a sample of the others. Calls follow the shape of the dose curve; as a rule, active = well fitted inhibition curve with a large enough effect; inconclusive = small, poorly fitted or top-dose-only effect, or another doubt; inactive = no such curve, though single readings can be large or run the other way. Potencies beside an inconclusive call are fits to weak or partial responses and may not hold up.

Protein sequences, listed by entry. Tags and fused reporters are not part of them.
UniProt Q92830, whole entry, looked up: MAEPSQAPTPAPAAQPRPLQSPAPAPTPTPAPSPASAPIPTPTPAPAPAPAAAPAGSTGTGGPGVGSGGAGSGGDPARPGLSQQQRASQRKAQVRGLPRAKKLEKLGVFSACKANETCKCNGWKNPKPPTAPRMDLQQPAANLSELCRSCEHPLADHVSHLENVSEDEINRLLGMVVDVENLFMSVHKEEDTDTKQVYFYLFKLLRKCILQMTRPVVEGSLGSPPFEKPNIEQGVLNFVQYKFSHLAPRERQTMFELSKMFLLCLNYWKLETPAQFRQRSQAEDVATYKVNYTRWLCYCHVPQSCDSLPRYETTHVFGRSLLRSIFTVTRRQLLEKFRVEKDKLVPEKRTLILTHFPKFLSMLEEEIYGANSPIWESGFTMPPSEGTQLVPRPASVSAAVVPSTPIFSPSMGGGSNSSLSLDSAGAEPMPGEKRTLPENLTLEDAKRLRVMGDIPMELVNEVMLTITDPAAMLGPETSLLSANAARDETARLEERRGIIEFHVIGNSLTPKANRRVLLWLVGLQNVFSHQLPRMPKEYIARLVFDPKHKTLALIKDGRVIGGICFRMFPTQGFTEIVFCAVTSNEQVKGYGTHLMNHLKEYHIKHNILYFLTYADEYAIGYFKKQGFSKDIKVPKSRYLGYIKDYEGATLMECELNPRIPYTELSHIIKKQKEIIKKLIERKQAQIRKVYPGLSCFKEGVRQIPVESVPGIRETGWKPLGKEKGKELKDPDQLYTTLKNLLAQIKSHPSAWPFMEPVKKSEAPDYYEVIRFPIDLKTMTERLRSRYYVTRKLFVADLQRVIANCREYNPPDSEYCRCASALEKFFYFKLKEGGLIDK

These compounds were tested against Histone acetyltransferase KAT2A (Homo sapiens) (UniProt Q92830) (assay: qHTS Assay for Inhibitors of GCN5L2). Conditions: GCN5L2 HAT assay, ThioGlo1 CoA-SH fluorescence; activity change, negative = inhibition: at 58.9 µM (top of the series) unless noted.
Method in brief: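 GCN5L2 (20nM final) in 50mM HEPES, 0.1mM EDTA pH 7.5, 0.01% Tween-20 was preincubated 15 min at room temperature with compound, then given ThioGlo1 (50uM), H3(1-25) peptide (75uM) and acetyl-CoA (70uM); CoA-thiol fluorescence (Ex340/Em540) was read at 0 and 20 min.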
% is scaled to controls: 0 for no effect and ±100 for the full control effect; potency is read from the fitted curve at half-maximal effect.

SMILES	activity change, negative = inhibition	Potency
Cc1cc(C)c2c(NC(=O)c3ccccc3Cl)c(C(=O)NCc3ccc(Cl)cc3)sc2n1	inactive: -5.35%	
Cc1ccc2c(c1)c1c(n2CC(O)CN2CCOCC2)CCCC1 (configuration not stated)	inactive: -15.6%	
CCCc1cc(=O)[nH]c(Nc2cc(Cl)cc(Cl)c2)n1	inactive: -1.18%	
COc1ccc(CN(C)CC(=O)Nc2ccccc2-c2ccccc2)c(OC)c1		inconclusive: 22.4 µM [inhibitor, single point]
CC(=O)CSc1nc(-c2cccs2)c(C#N)c(=O)[nH]1		inconclusive: 8.91 µM [inhibitor, single point]
CC(C)c1ccc(C2CC(=O)N3CN(C4CCCCC4)CSC3=C2C#N)cc1 (configuration not stated)		inconclusive: 25.1 µM [inhibitor, single point]
Nc1ccc2nc(-c3ccc(N)c(Cl)c3)[nH]c2c1		inconclusive: 39.8 µM [inhibitor, single point]
CNC(C)C#Cc1ccc2oc3cccc(OC)c3c(=O)c2c1 (configuration not stated)	inactive: -12.6%	
CC(C)C(=O)N1CCN(c2c(Cl)cccc2[N+](=O)[O-])CC1		inconclusive: 0.398 µM [inhibitor, partial curve, poor fit]
C=CCn1c(=O)/c(=C/c2ccc(F)cc2)s/c1=C(\C#N)c1nnc2n1CCCCC2		inconclusive: 14.1 µM [inhibitor, partial curve]
COc1ccc(OC)c(C2C(C(=O)Nc3nc4ccccc4s3)=C(C)NC3=C2C(=O)CCC3)c1 (configuration not stated)		inconclusive: 3.55 µM [inhibitor, single point]
Cc1sc2ncnc(SCC(=O)Nc3ncccc3O)c2c1C		inconclusive: 28.2 µM [inhibitor, single point]
Cn1cc(/C=C(\NC(=O)c2ccccc2)C(=O)NCCN2CCOCC2)c2ccccc21		inconclusive: 1.41 µM [inhibitor, partial curve]
Cc1cccc(N/N=C(\C#N)S(=O)(=O)C(C)(C)C)c1		inconclusive: 0.708 µM [inhibitor, single point]
Cc1ccc(F)cc1NC(=O)c1sc2ncn(CC(=O)N3CCN(c4ccccn4)CC3)c(=O)c2c1C		inconclusive: 10 µM [inhibitor, partial curve]
CCN1CCN(CCCNC(=O)CCC(=O)N2CC(C)Oc3ccc(C)cc32)CC1 (configuration not stated)		inconclusive: 31.6 µM [inhibitor, single point]
N#CC(=C1CCCC1)c1nc(-c2ccc(Cl)cc2)cs1		inconclusive: 0.794 µM [inhibitor, full curve]
COc1cc(C2CC(c3c(C)cc(C)[nH]c3=O)=NN2c2ccccc2F)cc(OC)c1OC (configuration not stated)		inconclusive: 39.8 µM [inhibitor, single point]
CCC(=O)N=c1sc2c(C)cc(C)cc2n1CC(=O)OC		inconclusive: 39.8 µM [inhibitor, single point]
CCc1cc(C(=O)NNC(=O)c2csc(N3CCOCC3)n2)sc1C		inconclusive: 15.8 µM [inhibitor, partial curve, poor fit]
CCNc1ncc2ncc(=O)n(C[C@H]3CCCO3)c2n1		inconclusive: 39.8 µM [inhibitor, single point]
COc1cccc(-c2nc(SCC(=O)Nc3nc(-c4ccccc4)c(C)s3)[nH]c(=O)c2C#N)c1		inconclusive: 39.8 µM [inhibitor, single point]
CCN(CC(=O)Nc1c(F)cccc1F)C(=O)/C=C/c1ccc2ccccc2n1		inconclusive: 10 µM [inhibitor, partial curve]

Single records, as listed above:
COc1cccc(-c2nc(SCC(=O)Nc3nc(-c4ccccc4)c(C)s3)[nH]c(=O)c2C#N)c1 reads Potency: inconclusive: 39.8 µM [inhibitor, single point]
Cc1ccc(F)cc1NC(=O)c1sc2ncn(CC(=O)N3CCN(c4ccccn4)CC3)c(=O)c2c1C reads Potency: inconclusive: 10 µM [inhibitor, partial curve]
CNC(C)C#Cc1ccc2oc3cccc(OC)c3c(=O)c2c1 (configuration not stated) reads activity change, negative = inhibition: inactive: -12.6%
Cc1sc2ncnc(SCC(=O)Nc3ncccc3O)c2c1C reads Potency: inconclusive: 28.2 µM [inhibitor, single point]

Continuation.

SMILES	activity change, negative = inhibition	Potency
CC(=O)N1CCN(Cc2nc3cc(NC(=O)Cn4nc(C)c5ccccc5c4=O)ccc3n2C)CC1		inconclusive: 39.8 µM [inhibitor, single point]
N=C1/C(=C\c2ccc(Br)o2)C(=O)N=C2SC(CC(=O)N3CCCCC3)=NN12		inconclusive: 35.5 µM [inhibitor, single point]
Cc1c(O)c(CN2CCCCC2)cc2c3c(c(=O)oc12)CCC3		inconclusive: 14.1 µM [inhibitor, partial curve]
CSc1c(CC(=O)Nc2ccccc2Cl)n(Cc2ccccc2)c2ccccc12		inconclusive: 0.251 µM [inhibitor, full curve, poor fit]
COc1ccc(S(=O)(=O)Nc2cc(Sc3ncn[nH]3)c(O)c3ccccc23)cc1		inconclusive: 25.1 µM [inhibitor, single point]
COc1ccc(C(=O)CCS(=O)(=O)c2ccc(C)cc2)cc1		inconclusive: 35.5 µM [inhibitor, single point]
CC1(c2ccccc2Cl)NC(=O)N(CC(=O)Nc2ccc(N3CCCCC3)cc2)C1=O (configuration not stated)		inconclusive: 3.55 µM [inhibitor, single point]
CCCCc1nn2c(=O)cc(COC(=O)c3cccc(Cl)c3)nc2s1		inconclusive: 8.91 µM [inhibitor, single point]
O=C(Nc1nc(-c2cccc(Br)c2)cs1)Oc1ccccc1		inconclusive: 8.91 µM [inhibitor, single point]
Oc1ccc(Cl)cc1C1=NNC(c2cccs2)C1 (configuration not stated)		inconclusive: 0.112 µM [inhibitor, full curve, poor fit]
O=[N+]([O-])c1ccc(C(O)CN2CCN(c3ccccc3)CC2)cc1 (configuration not stated)		inconclusive: 4.47 µM [inhibitor, single point]
O=C(Nc1ccccc1C(=O)O)c1cccc(NC(=O)c2ccccc2Cl)c1		inconclusive: 39.8 µM [inhibitor, single point]
CCCCSc1nnc(-c2ccc(C)cc2)c2ccccc12	inactive: -8.69%	
CCn1c(Cc2cccs2)nnc1SCC(=O)NC1CC1		inconclusive: 4.47 µM [inhibitor, single point]
c1ccc(-c2csc3ncn4cnnc4c23)cc1		inconclusive: 4.47 µM [inhibitor, full curve]
Cc1ccc(Cl)cc1N1CCN(C(=O)C2CCN(S(=O)(=O)Cc3ccccc3)CC2)CC1	inactive: -11.3%	
OCCN(C=NC1=NN(c2cccc(C(F)(F)F)c2)CC1)CCO	inactive: -11.8%	
CCCN1Cc2cccc(C(=O)NCCc3ccccc3)c2C1=O		inconclusive: 39.8 µM [inhibitor, single point]
CC(C)(c1cc(Br)c(O)c(Br)c1)c1cc(Br)c(O)c(Br)c1		inconclusive: 25.1 µM [inhibitor, single point]
Cc1cccc(NC(=O)COc2coc(CN3CCN(c4ccccc4)CC3)cc2=O)c1		inconclusive: 35.5 µM [inhibitor, single point]
COc1cc(OC)cc(-c2sc3ccc(OC)cc3c2-c2ccc(OCCN3CCOCC3)cc2)c1	inactive: -9.49%	
S=c1[nH]nc(-c2cc(-c3ccccc3)n[nH]2)n1/N=C/c1ccc(Cl)cc1	inactive: -10.2%	
CC(C)[N+](C)(C)CC(O)COc1cccc2ccccc12 (configuration not stated)		inconclusive: 31.6 µM [inhibitor, single point]

SMILES	activity change, negative = inhibition	Potency
Cc1cnccc1CN(C)Cc1cn(C)nc1-c1cccc(Cl)c1		inconclusive: 39.8 µM [inhibitor, single point]
CCOC(=O)C1CCN(Cc2ccc3ccccc3c2)CC1		inconclusive: 39.8 µM [inhibitor, single point]
CN1CCN(c2ncc3nc(-c4ccc(Cl)cc4)c(=O)n(C4CC4)c3n2)CC1		inconclusive: 31.6 µM [inhibitor, partial curve]
CC(NC(=O)Cn1cc(Br)c([N+](=O)[O-])n1)c1ccccc1 (configuration not stated)		inconclusive: 7.08 µM [inhibitor, single point]
COc1ccccc1-c1cc2nc(C)c(CCC(=O)NCCc3ccc(SC)cc3)c(C)n2n1	inactive: -29.7%	
Cc1occc1C(=O)NCc1nc(-c2ccccc2)no1	inactive: -2.54%	
O=c1ccsn1Cc1ccccc1		inconclusive: 7.08 µM [inhibitor, partial curve]
COc1ccc(C2Nc3cc(OC)ccc3-n3cccc32)cc1 (configuration not stated)		inconclusive: 25.1 µM [inhibitor, partial curve, poor fit]
COCCNc1cc(C)nc2c3c(C)cc(C)nc3nn12		inconclusive: 31.6 µM [inhibitor, partial curve, poor fit]
COc1ccc(NC(=O)Nc2cc(C)ccc2F)cc1		inconclusive: 39.8 µM [inhibitor, single point]
Nc1c(C2=NCCO2)nnn1Cc1ccccc1		inconclusive: 39.8 µM [inhibitor, single point]
Cn1nc(C(=O)NCc2ccc(F)cc2)c2c1-c1ccccc1SC2	inactive: -5.59%	
O=C(CN1CCC(n2nnc3cc(C(F)(F)F)ccc32)CC1)Nc1ccc2c(c1)OCCO2	inactive: -6.25%	
Cc1cccc(NC(=O)c2nc[nH]c2C(=O)N[C@H](C)c2ccccc2)c1		inconclusive: 35.5 µM [inhibitor, single point]
CCN(CC)S(=O)(=O)c1ccc(N/N=C/c2ccc(O)cc2O)nc1	inactive: -3.39%	
CCN(CC)C(=O)c1cc([N+](=O)[O-])cc2c1-c1ccc([N+](=O)[O-])cc1C2=C(C#N)C#N		inconclusive: 0.631 µM [inhibitor, full curve, poor fit]
COc1ccc(N=C(NN)c2ccc3ccccc3n2)cc1	inactive: -0.402%	
O=C(COc1ccc([N+](=O)[O-])cc1)NNC(=S)NC(=O)c1ccc(Br)cc1		inconclusive: 25.1 µM [inhibitor, partial curve]
COc1cccc2sc(NNC(=O)C3COc4ccccc4O3)nc12 (configuration not stated)	inactive: -3.08%	
CCC(C)NC(=O)CSc1nc(-c2cccs2)cc(C(F)(F)F)n1 (configuration not stated)	inconclusive: -87.7% [inhibitor] [at 0.501 µM]	
CCn1c2c(c(=O)n3ncc(C(=O)Nc4ccc(OC(F)(F)F)cc4)c13)CN(Cc1ccc(OC)cc1)CC2		inconclusive: 0.708 µM [inhibitor, full curve, poor fit]
